From paper PMC5717335 come the findings set out here.

The target in this assay is Bod1-GST (human), Q96IK1. The experiment in a line: pull-down; purified Bod1-GST on Sepharose beads incubated with mitotic HeLa cell lysates; immunoblot for Ndc80, Nuf2 and Spc24; only the target purified. As to conditions: remark: other sources report otherwise. A general note: In western blotting, separated proteins are transferred to a membrane and probed.

Results are given in words; binding and its absence hold for the method and conditions named. Binding seen in cells or lysates may run through a third protein. Some binding calls cover weakened binding; strength is not graded here.

B1: Ndc80 (Nuclear division cycle protein 80), O14777 1-642 (protein)
chain: MKRSSVSSGGAGRLSMQELRSQDVNKQGLYTPQTKEKPTFGKLSINKPTSERKVSLFGKRTSGHGSRNSQLGIFSSSEKIKDPRPLNDKAFIQQCIRQLCEFLTENGYAHNVSMKSLQAPSVKDFLKIFTFLYGFLCPSYELPDTKFEEEVPRIFKDLGYPFALSKSSMYTVGAPHTWPHIVAALVWLIDCIKIHTAMKESSPLFDDGQPWGEETEDGIMHNKLFLDYTIKCYESFMSGADSFDEMNAELQSKLKDLFNVDAFKLESLEAKNRALNEQIARLEQEREKEPNRLESLRKLKASLQGDVQKYQAYMSNLESHSAILDQKLNGLNEEIARVELECETIKQENTRLQNIIDNQKYSVADIERINHERNELQQTINKLTKDLEAEQQKLWNEELKYARGKEAIETQLAEYHKLARKLKLIPKGAENSKGYDFEIKFNPEAGANCLVKYRAQVYVPLKELLNETEEEINKALNKKMGLEDTLEQLNAMITESKRSVRTLKEEVQKLDDLYQQKIKEAEEEDEKCASELESLEKHKHLLESTVNQGLSEAMNELDAVQREYQLVVQTTTEERRKVGNNLQRLLEMVATHVGSVEKHLEEQIAKVDREYEECMSEDLSENIKEIRDKYEKKATLIKSSEE
Consider B1, for which the binding entry was “binds”.
